Earlier results as cited in patent EP2578210A1, “Rottlerin for the treatment of pulmonary hypertension and related diseases and disorders” (ATB Innovation Ltd., priority 2011, dated 2013).
For at least one compound, name, drawing or mass did not settle the structure.

Tested on: pulmonary arteries
Conditions: activation of Kv7 with unspecific Kv7 activators; cited from earlier work

CCOC(=O)Nc1ccc(NCc2ccc(F)cc2)nc1N [flupirtine]
effect on pulmonary arteries: relax pulmonary arteries
